This is an account of results in publication doi:10.1101/2022.06.27.497739.

Amino acid sequences for entries named in this document (tags omitted). A change or cut given only in a name is not applied to a line headed by its entry.
UniProt Q01939, whole entry, looked up, stated change not applied: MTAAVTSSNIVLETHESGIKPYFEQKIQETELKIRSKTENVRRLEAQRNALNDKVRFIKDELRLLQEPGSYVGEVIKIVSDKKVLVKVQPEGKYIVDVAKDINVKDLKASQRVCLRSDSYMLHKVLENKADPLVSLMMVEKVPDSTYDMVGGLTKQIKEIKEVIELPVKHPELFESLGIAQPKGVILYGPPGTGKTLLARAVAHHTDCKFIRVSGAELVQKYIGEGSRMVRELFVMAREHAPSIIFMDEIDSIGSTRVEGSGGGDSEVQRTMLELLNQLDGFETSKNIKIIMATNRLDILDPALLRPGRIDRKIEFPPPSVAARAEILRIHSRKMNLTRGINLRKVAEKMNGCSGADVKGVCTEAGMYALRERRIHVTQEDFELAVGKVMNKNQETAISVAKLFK

No constants are given. Whether binding was seen depends on the method and setting. For part of these data: Binding seen in cells or lysates may run through a third protein. Some entries that bind do so weakly or less than the wild type. For part of these data: Tags and fused reporters may be left off the sequences shown.

In assay [1] the target is T1, Rpn6 with MBP tag, co-expressed with the other lid subunits (budding yeast (S. cerevisiae)) (UniProt Q12377).
T1 sequence: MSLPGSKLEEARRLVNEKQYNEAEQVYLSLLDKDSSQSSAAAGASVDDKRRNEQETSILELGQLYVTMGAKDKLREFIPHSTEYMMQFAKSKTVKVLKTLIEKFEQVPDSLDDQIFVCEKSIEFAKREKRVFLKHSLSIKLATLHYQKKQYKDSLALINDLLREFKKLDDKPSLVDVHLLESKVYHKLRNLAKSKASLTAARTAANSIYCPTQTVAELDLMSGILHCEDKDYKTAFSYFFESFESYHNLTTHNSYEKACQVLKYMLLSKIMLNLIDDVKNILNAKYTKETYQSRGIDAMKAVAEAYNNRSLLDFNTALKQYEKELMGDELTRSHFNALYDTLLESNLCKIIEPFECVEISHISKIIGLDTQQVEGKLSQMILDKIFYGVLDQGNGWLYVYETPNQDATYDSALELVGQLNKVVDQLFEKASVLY
As to the kind of experiment: co-purification of co-expressed subunits.

For assay [2], the target named is T2, Rpn6 with MBP tag, co-expressed with the other lid subunits (budding yeast (S. cerevisiae)), Q12377.
T2 chain: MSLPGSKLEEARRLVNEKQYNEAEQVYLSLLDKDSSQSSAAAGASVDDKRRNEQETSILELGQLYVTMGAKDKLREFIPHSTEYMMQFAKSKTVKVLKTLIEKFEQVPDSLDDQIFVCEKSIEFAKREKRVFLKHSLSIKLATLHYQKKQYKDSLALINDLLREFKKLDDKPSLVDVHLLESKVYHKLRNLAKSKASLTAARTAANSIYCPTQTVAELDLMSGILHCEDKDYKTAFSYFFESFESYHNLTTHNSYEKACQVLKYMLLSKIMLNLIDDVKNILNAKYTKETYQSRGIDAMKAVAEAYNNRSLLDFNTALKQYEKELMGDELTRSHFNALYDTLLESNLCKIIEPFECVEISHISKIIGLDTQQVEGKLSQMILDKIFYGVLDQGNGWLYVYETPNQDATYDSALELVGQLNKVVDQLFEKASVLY
In words: co-purification of co-expressed subunits. To be noted: remark: other sources report otherwise.

For assay [3], the target named is Rpt6 I375C (Rpn7-Rpt6 reporter pair) (budding yeast (S. cerevisiae), expressed in yeast cells) (UniProt Q01939). As to the kind of experiment: cross-linking.

B1: Rpn5, co-expressed lid subunit (protein, UniProt Q12250 1-445)
chain: MSRDAPIKADKDYSQILKEEFPKIDSLAQNDCNSALDQLLVLEKKTRQASDLASSKEVLAKIVDLLASRNKWDDLNEQLTLLSKKHGQLKLSIQYMIQKVMEYLKSSKSLDLNTRISVIETIRVVTENKIFVEVERARVTKDLVEIKKEEGKIDEAADILCELQVETYGSMEMSEKIQFILEQMELSILKGDYSQATVLSRKILKKTFKNPKYESLKLEYYNLLVKISLHKREYLEVAQYLQEIYQTDAIKSDEAKWKPVLSHIVYFLVLSPYGNLQNDLIHKIQNDNNLKKLESQESLVKLFTTNELMRWPIVQKTYEPVLNEDDLAFGGEANKHHWEDLQKRVIEHNLRVISEYYSRITLLRLNELLDLTESQTETYISDLVNQGIIYAKVNRPAKIVNFEKPKNSSQLLNEWSHNVDELLEHIETIGHLITKEEIMHGLQAK
Regarding B1, the binding result in assay [1] is “binds”.

B2: Rpn8, co-expressed lid subunit (protein, UniProt Q08723 1-338)
chain: MSLQHEKVTIAPLVLLSALDHYERTQTKENKRCVGVILGDANSSTIRVTNSFALPFEEDEKNSDVWFLDHNYIENMNEMCKKINAKEKLIGWYHSGPKLRASDLKINELFKKYTQNNPLLLIVDVKQQGVGLPTDAYVAIEQVKDDGTSTEKTFLHLPCTIEAEEAEEIGVEHLLRDVRDQAAGGLSIRLTNQLKSLKGLQSKLKDVVEYLDKVINKELPINHTILGKLQDVFNLLPNLGTPDDDEIDVENHDRINISNNLQKALTVKTNDELMVIYISNLVRSIIAFDDLIENKIQNKKIQEQRVKDKQSKVSDDSESESGDKEATAPLIQRKNKKN
Regarding B2, the binding result in assay [1] is given as “binds”.

B3: Rpn9, co-expressed lid subunit (protein, UniProt Q04062 1-393)
chain: MFNNHEIDTILSTLRMEADPSLHPLFEQFEKFYEEKLWFQLSESLTKFFDDAKSTPLRLRLYDNFVSKFYDKINQLSVVKYLLASLKDSKDFDESLKYLDDLKAQFQELDSKKQRNNGSKDHGDGILLIDSEIARTYLLKNDLVKARDLLDDLEKTLDKKDSIPLRITNSFYSTNSQYFKFKNDFNSFYYTSLLYLSTLEPSTSITLAERQQLAYDLSISALLGDKIYNFGELLHHPIMETIVNDSNYDWLFQLLNALTVGDFDKFDSLIKVQISKIPILAQHESFLRQKICLMTLIETVFVKNIRMLSFEDISKATHLPKDNVEHLVMRAISLGLLKGSIDQVNELVTISWVQPRIISGDQITKMKDRLVEWNDQVEKLGKKMEARGQSIWV
With B3, in assay [1], the binding entry is recorded as “binds”.

B4: Sem1 co-expressed with the other lid subunits (WT lid), O94742 1-89 (protein)
chain: MSTDVAAAQAQSKIDLTKKKNEEINKKSLEEDDEFEDFPIDTWANGETIKSNAVTQTNIWEENWDDVEVDDDFTNELKAELDRYKRENQ
On to B4, for which the binding entry in assay [2] was “binds”.

B5: Rpn11, co-expressed lid subunit, P43588 1-306 (enzyme)
chain: MERLQRLMMNSKVGSADTGRDDTKETVYISSIALLKMLKHGRAGVPMEVMGLMLGEFVDDYTVNVVDVFAMPQSGTGVSVEAVDDVFQAKMMDMLKQTGRDQMVVGWYHSHPGFGCWLSSVDVNTQKSFEQLNSRAVAVVVDPIQSVKGKVVIDAFRLIDTGALINNLEPRQTTSNTGLLNKANIQALIHGLNRHYYSLNIDYHKTAKETKMLMNLHKEQWQSGLKMYDYEEKEESNLAATKSMVKIAEQYSKRIEEEKELTEEELKTRYVGRQDPKKHLSETADETLENNIVSVLTAGVNSVAIK
With B5, the binding entry in assay [2] is “binds”.

B6: Rpn7 W204A, E205R, T237A, co-expressed lid subunit (protein, UniProt Q06103 20-424)
chain: RVPNYEVSEKAFLLTQSKVSIEQRKEAAEFVLAKIKEEEMAPYYKYLCEEYLVNNGQSDLEHDEKSDSLNEWIKFDQELYNELCKKNESKIKELNEKIQKLEEDDEGELEQAQAWINLGEYYAQIGDKDNAEKTLGKSLSKAISTGAKIDVMLTIARLGFFYNDQLYVKEKLEAVNSMIEKGGDARRRNRYKTYYGIHCLAVRNFKEAAKLLVDSLAAFTSIELTSYESIATYASVTGLFTLERTDLKSKVIDSPELLSLISTTAALQSISSLTISLYASDYASYFPYLLETYANVLIPCKYLNRHADFFVREMRRKVYAQLLESYKTLSLKSMASAFGVSVAFLDNDLGKFIPNKQLNCVIDRVNGIVETNRPDNKNAQYHLLVKQGDGLLTKLQKYGAAVRLT
Consider B6, for which the binding entry in assay [1] was “binds”.

B7: Rpn7 W204C (Rpn7-Rpt6 reporter pair) (protein, UniProt Q06103 20-424)
chain: RVPNYEVSEKAFLLTQSKVSIEQRKEAAEFVLAKIKEEEMAPYYKYLCEEYLVNNGQSDLEHDEKSDSLNEWIKFDQELYNELCKKNESKIKELNEKIQKLEEDDEGELEQAQAWINLGEYYAQIGDKDNAEKTLGKSLSKAISTGAKIDVMLTIARLGFFYNDQLYVKEKLEAVNSMIEKGGDCERRNRYKTYYGIHCLAVRNFKEAAKLLVDSLATFTSIELTSYESIATYASVTGLFTLERTDLKSKVIDSPELLSLISTTAALQSISSLTISLYASDYASYFPYLLETYANVLIPCKYLNRHADFFVREMRRKVYAQLLESYKTLSLKSMASAFGVSVAFLDNDLGKFIPNKQLNCVIDRVNGIVETNRPDNKNAQYHLLVKQGDGLLTKLQKYGAAVRLT
Take B7: in assay [3], the binding entry was “binds”.

B8: Rpn7, co-expressed lid subunit (protein, UniProt Q06103 20-424)
chain: RVPNYEVSEKAFLLTQSKVSIEQRKEAAEFVLAKIKEEEMAPYYKYLCEEYLVNNGQSDLEHDEKSDSLNEWIKFDQELYNELCKKNESKIKELNEKIQKLEEDDEGELEQAQAWINLGEYYAQIGDKDNAEKTLGKSLSKAISTGAKIDVMLTIARLGFFYNDQLYVKEKLEAVNSMIEKGGDWERRNRYKTYYGIHCLAVRNFKEAAKLLVDSLATFTSIELTSYESIATYASVTGLFTLERTDLKSKVIDSPELLSLISTTAALQSISSLTISLYASDYASYFPYLLETYANVLIPCKYLNRHADFFVREMRRKVYAQLLESYKTLSLKSMASAFGVSVAFLDNDLGKFIPNKQLNCVIDRVNGIVETNRPDNKNAQYHLLVKQGDGLLTKLQKYGAAVRLT
As to B8, the binding result in assay [1] is listed as “binds”.

B9: Rpn12, co-expressed lid subunit (protein, UniProt P32496 1-274)
chain: MPSLAELTKSLSIAFENGDYAACEKLLPPIKIELIKNNLLIPDLSIQNDIYLNDLMITKRILEVGALASIQTFNFDSFENYFNQLKPYYFSNNHKLSESDKKSKLISLYLLNLLSQNNTTKFHSELQYLDKHIKNLEDDSLLSYPIKLDRWLMEGSYQKAWDLLQSGSQNISEFDSFTDILKSAIRDEIAKNTELSYDFLPLSNIKALLFFNNEKETEKFALERNWPIVNSKVYFNNQSKEKADYEDEMMHEEDQKTNIIEKAMDYAISIENIV
On to B9, for which, in assay [1], the binding result was “binds”.
